Consider 78 compounds from the supplement of paper PMC4749390.

“And” between values parts separate entries of the source, which are not always exact repeats. Identical values can stand only once. Counter-ions that a name gives are not always drawn. The list shows a part of the results. Single values are uncertain here, since repeats match poorly.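 JEG3 cells stably express tetracycline-inducible wild-type human LRH-1, a highly sumoylated nuclear receptor. SUMO-sensitive transcripts APOC3 and MUC1, increased by SUMO-deficient LRH-1 or UBC9 knockdown, were quantified by RT-qPCR relative to TBP and DMSO controls. Primary hits had robust Z-scores above +2 or below -2, before toxicity and TBP filtering.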

For the experiment, the system named is JEG3 expressing hLRH-1. The experiment can be described thus: APOC3 transcript change (ddCt vs TBP and DMSO), Z-score over library; higher = higher APOC3 expression. The note with it: 10 µM; time (hr): 24.
Consider `O=c1[nH]c(=O)c2ccccc2o1` [carsalam], for which the “APOC3 transcript change (Z-score)” value came to 1.4.
On to `CCCCC/N=C(\N)N/N=C/c1c[nH]c2ccc(OC)cc12` [tegaserod maleate], for which the “APOC3 transcript change (Z-score)” value was determined as 0.417.
Under `CN1C(=O)CC(c2ccccc2)C1=O` (stereo not drawn) [phensuccimide] stands 0.298; under `CCN(CCO)CCCC(C)Nc1ccnc2cc(Cl)ccc12` (stereo not drawn) [hydroxychloroquine sulfate], -0.49; under `NS(=O)(=O)c1cc2c(cc1C(F)(F)F)NC(Cc1ccccc1)NS2(=O)=O` (stereo not drawn) [bendrofumethiazide], 1.82.
`C[C@]12CCC3c4ccc(O)cc4CCC3C1C[C@@H](O)[C@@H]2O` (stereo partly drawn) [estriol]: the “APOC3 transcript change (Z-score)” value is -0.498.
Take `NCCCC(N)CC(=O)NCC1NC(=O)C(CO)NC(=O)C(N)CNC(=O)C(C2CCN=C(N)N2)NC(=O)/C(=C\NC(N)=O)NC1=O` (stereo not drawn) [capreomycin sulfate]: the “APOC3 transcript change (Z-score)” value came to 0.267.
For `CC(=O)Nc1nnc(S(N)(=O)=O)s1` [Acetazolamide], the “APOC3 transcript change (Z-score)” value is -0.632.
To `CC(CCc1ccccc1)NCC(O)c1ccc(O)c(C(N)=O)c1` (stereo not drawn) [labetalol hydrochloride] belongs 1.35; to `C/C=C/c1ccc(OC)cc1` [anethole], -0.716; to `COc1ccc(C(=O)NCc2ccc(OCCN(C)C)cc2)cc1OC` [itopride  hydrochloride], 0.0769.
Turning to `CCOC(=O)NNc1nncc2ccccc12` [todralazine hydrochloride], the “APOC3 transcript change (Z-score)” value stood at 0.65.
Under `CO/N=C1\C[C@]2(C[C@@H]3C[C@@H](C/C=C(\C)C[C@@H](C)/C=C/C=C4\CO[C@@H]5[C@H](O)C(C)=C[C@@H](C(=O)O3)[C@]45O)O2)O[C@H](/C(C)=C/C(C)C)[C@H]1C` [moxidectin] stands 0.114; under `NC(Cc1c[nH]c2ccccc12)C(=O)O` (stereo not drawn) [tryptophan], -0.0473; under `CCCc1nc(C(C)(C)O)c(C(=O)O)n1Cc1ccc(-c2ccccc2-c2nn[nH]n2)cc1` [olmesartan], -0.178.
Under `CCCCC1=NC2(CCCC2)C(=O)N1Cc1ccc(-c2ccccc2-c2nn[nH]n2)cc1` [irbesartan] stands -0.813.
On to `N#Cc1ccc2[nH]cc(CCCCN3CCN(c4ccc5oc(C(N)=O)cc5c4)CC3)c2c1` [vilazodone hydrochloride], for which the “APOC3 transcript change (Z-score)” value was -0.907.
As to `C[C@H](CCC(=O)O)[C@H]1CCC2C3C(CC[C@@]21C)[C@@]1(C)CC[C@@H](O)C[C@H]1C[C@H]3O` (stereo partly drawn) [chenodiol], the “APOC3 transcript change (Z-score)” value was 0.0163.
To `CN1CCC(=C2c3ccccc3CCc3cccnc32)CC1` [azatadine maleate] belongs 0.183.
For `OC[C@H]1O[C@H](O[C@H]2[C@H](O)[C@@H](O)[C@H](O)O[C@@H]2CO)[C@H](O)[C@@H](O)[C@@H]1O` [d-(+)-maltose], the “APOC3 transcript change (Z-score)” value is -0.231.
`Nc1ccn([C@@H]2O[C@H](CO)[C@@H](O)[C@@H]2O)c(=O)n1` [cytarabine]: the “APOC3 transcript change (Z-score)” value is 1.89.
As for `CCCCCCCC/C=C\CCCCCCCC(=O)O` [ethanolamine oleate], the “APOC3 transcript change (Z-score)” value worked out at 0.424.
Consider `CN(C)CCCN1c2ccccc2CCc2ccccc21` [Imipramine hydrochloride], for which the “APOC3 transcript change (Z-score)” value is -1.14.
Take `Nc1nc(S)c2[nH]cnc2n1` [thioguanine]: the “APOC3 transcript change (Z-score)” value is -0.85.
For `O=C(O)[C@H]1/C(=C/CO)O[C@@H]2CC(=O)N21` [clavulanate lithium], the “APOC3 transcript change (Z-score)” value was 0.497.
Under `C[C@]12C=CC(=O)C=C1CCC1C2C(=O)C[C@@]2(C)C1CC[C@]2(O)C(=O)CO` (stereo partly drawn) [prednisone] stands -0.552.
Under `CC(c1cc2ccccc2s1)N(O)C(N)=O` (stereo not drawn) [zileuton] stands -0.305.
Consider `CCN(CC)CCCC(C)Nc1c2ccc(Cl)cc2nc2ccc(OC)cc12` (stereo not drawn) [Quinacrine dihydrochloride], for which the “APOC3 transcript change (Z-score)” value was determined as 6.71.
To `CC(=O)OCC(=O)[C@@]1(O)[C@@H](C)CC2C3CCC4=CC(=O)C=C[C@]4(C)[C@@]3(F)[C@@H](O)C[C@@]21C` (stereo partly drawn) [betamethasone acetate] belongs -0.398; to `O=C1CCc2cc(OCCCCc3nnnn3C3CCCCC3)ccc2N1` [cilostazol], 0.00411; to `CCCCOCCOCCOCc1cc2c(cc1CCC)OCO2` [piperonyl butoxide], -0.631.
Regarding `O=C1OC(CN2CCOCC2)CN1/N=C/c1ccc([N+](=O)[O-])o1` (stereo not drawn) [furaltadone], the “APOC3 transcript change (Z-score)” value is -0.0298.
Under `C=CC1=C(C(=O)O)N2C(=O)[C@@H](NC(=O)/C(=N\O)c3csc(N)n3)[C@H]2SC1` [cefdinir] stands -0.18; under `CCCCCCCCCCCCCCCC(=O)NCCO` [palmidrol], -0.142.
To `CO[C@H]1O[C@@H]2O[C@@]3(C)CC[C@H]4[C@H](C)CC[C@@H]([C@H]1C)[C@@]24OO3` [artemether] belongs 0.652.
Under `C[C@@H](c1ncncc1F)[C@](O)(Cn1cncn1)c1ccc(F)cc1F` [voriconazole] stands -0.515; under `NC12CC3CC(CC(C3)C1)C2` [Amantadine hydrochloride], 0.0418; under `CCCCC1C(=O)N(c2ccccc2)N(c2ccc(O)cc2)C1=O` (stereo not drawn) [oxyphenbutazone], 1.05.
As to `O=C(C1CCCCC1)N1CC(=O)N2CCc3ccccc3C2C1` (stereo not drawn) [praziquantel], the “APOC3 transcript change (Z-score)” value was found to be 0.0277.
With `C[C@H](CCC(=O)O)[C@H]1CCC2C3C(=O)CC4CC(=O)CC[C@]4(C)C3CC(=O)[C@@]21C` (stereo partly drawn) [sodium dehydrocholate], the “APOC3 transcript change (Z-score)” value was -0.0839.
As for `Cc1cc(-c2ccc(N=Nc3ccc4c(S(=O)(=O)O)cc(S(=O)(=O)O)c(N)c4c3O)c(C)c2)ccc1N=Nc1ccc2c(S(=O)(=O)O)cc(S(=O)(=O)O)c(N)c2c1O` [evans blue], the “APOC3 transcript change (Z-score)” value came out at 0.979.
For `O=C1CC2(CCCC2)CC(=O)N1CCCCN1CCN(c2ncccn2)CC1` [Buspirone hydrochloride], the “APOC3 transcript change (Z-score)” value was found to be 0.458.
Under `CC(=O)N(O)CCCCCNC(=O)CCC(=O)N(O)CCCCCNC(=O)CCC(=O)N(O)CCCCCN` [deferoxamine mesylate] stands 0.819; under `O=C(CCCN1CCN(c2ccccn2)CC1)c1ccc(F)cc1` [azaperone], 0.0291.
Take `CN1CCC(=C2c3ccccc3Sc3ccccc32)CC1` [pimethixene maleate]: the “APOC3 transcript change (Z-score)” value worked out at 1.88.
Consider `C[C@]12CC[C@@H]3c4ccc(O)cc4CC[C@H]3[C@@H]1CC[C@@H]2OC(=O)CCC1CCCC1` [estradiol cypionate], for which the “APOC3 transcript change (Z-score)” value is -0.288.
To `CC(=O)Nc1ccc(OC(C)=O)cc1` [diacetamate] belongs 0.179; to `CCC(Cc1c(I)cc(I)c(N)c1I)C(=O)O` (stereo not drawn) [iopanic acid], 1.15.
For the compound `CCC(NC(C)C)C(O)c1ccc(O)c(O)c1` (stereo not drawn) [isoetharine mesylate], the “APOC3 transcript change (Z-score)” value stood at 0.166.
To `Cn1c([N+](=O)[O-])cc[n+]1C` [dimetridazole] belongs 0.484; to `CCN(CC)C(=O)/C(C#N)=C/c1cc(O)c(O)c([N+](=O)[O-])c1` [entacapone], -0.498; to `CCOC(=O)C(C)(C)Oc1ccc(Cl)cc1` [Clofibrate], -0.0616.
Under `NCc1ccc(S(N)(=O)=O)cc1` [mafenide hydrochloride] stands 0.312; under `CN(C)CCOC(c1ccc(Cl)cc1)c1ccccn1` (stereo not drawn) [carbinoxamine maleate], 1.37.
As for `CC(C)[C@H](N)C(=O)OCC(CO)OCn1cnc2c(O)nc(N)nc21` (stereo partly drawn) [valganciclovir hydrochloride], the “APOC3 transcript change (Z-score)” value was -0.255.
To `CCCN(CCC)C(=O)C(CCC(=O)O)NC(=O)c1ccccc1` (stereo not drawn) [Proglumide] belongs 1.8; to `C[C@H](COc1ccccc1)N[C@H](C)[C@H](O)c1ccc(O)cc1` [isoxsuprine hydrochloride], -0.0531; to `CS(=O)(=O)OCCCCOS(C)(=O)=O` [busulfan], 0.0876.
To `CC(C)Oc1ccc2c(=O)cc(-c3ccccc3)oc2c1` [ipriflavone] belongs -0.139; to `COc1cc2nc(N3CCN(C(=O)C4CCCO4)CC3)nc(N)c2cc1OC` (stereo not drawn) [terazosin hydrochloride], -0.221; to `COc1cc(OC)c(C(=O)CCCN2CCCC2)c(OC)c1` [buflomedil hydrochloride], -0.705.
Under `CCC(=O)c1ccc(O)cc1` [paroxypropione] stands -0.746; under `CC[C@H]1OC(=O)[C@H](C)[C@@H](O[C@H]2C[C@@](C)(OC)[C@@H](O)[C@H](C)O2)[C@H](C)[C@@H](O[C@@H]2O[C@H](C)C[C@H](N(C)C)[C@H]2O)[C@](C)(O)C[C@@H](C)C(=O)[C@H](C)[C@@H](O)[C@]1(C)O` [erythromycin], -0.298 and -0.55; under `Oc1ccc(Cl)c2cccnc12` [cloxyquin], 0.561.
For the compound `Cn1ccnc1S` [methimazole], the “APOC3 transcript change (Z-score)” value is 0.405.
For `COc1ccc(C2CNC(=O)C2)cc1OC1CCCC1` (stereo not drawn) [Rolipram], the “APOC3 transcript change (Z-score)” value was determined as 1.13.
Take `CCC1(c2ccccc2)C(=O)NCNC1=O` [Primidone]: the “APOC3 transcript change (Z-score)” value stood at 0.865.
Turning to `CC1CC(OC(=O)c2ccccc2O)CC(C)(C)C1` (stereo not drawn) [homosalate], the “APOC3 transcript change (Z-score)” value was determined as 0.18.
Under `CC(C)(Oc1ccc(Cl)cc1)C(=O)O` [clofibric acid] stands 0.437; under `CC(=O)NO` [acetohydroxamic acid], -0.177.
Regarding `O=C(O)c1cc(-c2ccc(F)cc2F)ccc1O` [diflunisal], the “APOC3 transcript change (Z-score)” value is -0.185.
As to `CC(=O)CC(c1ccc([N+](=O)[O-])cc1)c1c(O)oc2ccccc2c1=O` (stereo not drawn) [acenocoumarol], the “APOC3 transcript change (Z-score)” value is -0.519.
Turning to `Cn1cnc([N+](=O)[O-])c1Sc1[nH]cnc2ncnc1-2` [Azathioprine], the “APOC3 transcript change (Z-score)” value was found to be 0.863.
To `CC(C)(S)[C@@H](N)C(=O)O` [penicillamine] belongs -0.77; to `O=C1O[C@H](CO)[C@@H](O)[C@H](O)[C@H]1O` [gluconolactone], 0.548.
Consider `COc1ccc2cc3[n+](cc2c1OC)CCc1cc2c(cc1-3)OCO2` [berberine chloride], for which the “APOC3 transcript change (Z-score)” value is -0.919.
For `CC[C@H]1OC(=O)[C@H](C)[C@@H](O[C@H]2C[C@@](C)(OC)[C@@H](O)[C@H](C)O2)[C@H](C)[C@@H](O[C@@H]2O[C@H](C)C[C@H](N(C)C)[C@H]2O)[C@](C)(O)C[C@@H](C)[C@@H]2N[C@@H](COCCOC)O[C@H]([C@H]2C)[C@]1(C)O` [dirithromycin], the “APOC3 transcript change (Z-score)” value was 0.294.
`O=C1CN2Cc3c(ccc(Cl)c3Cl)N=C2N1` [anagrelide hydrochloride]: the “APOC3 transcript change (Z-score)” value was 0.216.
